From paper PMC5752522 come the findings set out here.

The chains behind the UniProt entries cited, without tags or fusion partners.
UniProt Q13887: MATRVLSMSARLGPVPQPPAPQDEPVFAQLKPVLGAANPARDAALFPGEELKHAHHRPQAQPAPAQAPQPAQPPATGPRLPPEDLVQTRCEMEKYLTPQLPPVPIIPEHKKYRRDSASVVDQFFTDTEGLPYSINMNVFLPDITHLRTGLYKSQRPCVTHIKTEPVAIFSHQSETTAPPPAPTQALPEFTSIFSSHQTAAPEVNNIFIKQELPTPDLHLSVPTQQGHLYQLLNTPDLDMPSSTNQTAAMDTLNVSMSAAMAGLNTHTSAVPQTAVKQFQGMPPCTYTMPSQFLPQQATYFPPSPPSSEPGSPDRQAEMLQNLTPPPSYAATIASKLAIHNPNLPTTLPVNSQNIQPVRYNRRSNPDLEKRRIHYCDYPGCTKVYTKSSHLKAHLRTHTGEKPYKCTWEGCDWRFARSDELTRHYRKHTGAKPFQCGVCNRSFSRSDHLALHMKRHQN
UniProt P46937: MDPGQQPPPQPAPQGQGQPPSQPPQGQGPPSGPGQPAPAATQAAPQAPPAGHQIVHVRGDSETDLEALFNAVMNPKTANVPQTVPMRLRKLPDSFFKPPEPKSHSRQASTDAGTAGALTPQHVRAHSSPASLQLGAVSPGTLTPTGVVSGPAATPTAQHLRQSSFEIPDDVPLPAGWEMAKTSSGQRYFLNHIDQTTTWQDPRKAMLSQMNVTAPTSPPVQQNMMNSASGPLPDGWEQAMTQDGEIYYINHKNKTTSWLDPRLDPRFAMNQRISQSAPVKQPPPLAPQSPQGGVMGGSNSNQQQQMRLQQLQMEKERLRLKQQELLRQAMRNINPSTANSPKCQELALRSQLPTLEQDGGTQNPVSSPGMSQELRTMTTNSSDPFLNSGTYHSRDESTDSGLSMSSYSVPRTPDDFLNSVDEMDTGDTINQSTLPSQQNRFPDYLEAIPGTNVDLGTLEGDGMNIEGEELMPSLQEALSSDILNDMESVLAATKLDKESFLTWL

For test [1], the target named is Krüppel-like factor 5 (KLF5) (human (endogenous in HT-29 and Caco-2)) (UniProt Q13887). The test can be described thus: co-IP; lysates of HT-29 and Caco-2 cells immunoprecipitated with anti-KLF5 (Santa Cruz sc-22797) or anti-YAP1 (Cell Signaling 14074) antibody, BeaverBeads Protein A/G Immunoprecipitation Kit, SDS/PAGE and Western blotting.
Test [2] has as its target YAP1 (human (endogenous in HT-29 and Caco-2)) (UniProt P46937). The description is as above.

No constants are given. Whether binding was seen depends on the method and setting. Binding seen in cells or lysates may run through a third protein. Some results given as binding are weak or reduced against the parent protein; the word gives no strength.

For YAP1 (from UniProt P46937 1-504), the binding result in test [1] is given as “binds”.

Regarding “Krüppel-like factor 5 (KLF5) (from UniProt Q13887 1-457)”, the binding entry in test [2] is “binds”.
